The text below walks through data of publication PMC5872389.

Chains of the proteins cited; added tags and fusions are not shown. Lines headed by an entry give the natural chain unless they say otherwise; changes in a name come on top. Residues count along the entry.
UniProt Q8WTV0: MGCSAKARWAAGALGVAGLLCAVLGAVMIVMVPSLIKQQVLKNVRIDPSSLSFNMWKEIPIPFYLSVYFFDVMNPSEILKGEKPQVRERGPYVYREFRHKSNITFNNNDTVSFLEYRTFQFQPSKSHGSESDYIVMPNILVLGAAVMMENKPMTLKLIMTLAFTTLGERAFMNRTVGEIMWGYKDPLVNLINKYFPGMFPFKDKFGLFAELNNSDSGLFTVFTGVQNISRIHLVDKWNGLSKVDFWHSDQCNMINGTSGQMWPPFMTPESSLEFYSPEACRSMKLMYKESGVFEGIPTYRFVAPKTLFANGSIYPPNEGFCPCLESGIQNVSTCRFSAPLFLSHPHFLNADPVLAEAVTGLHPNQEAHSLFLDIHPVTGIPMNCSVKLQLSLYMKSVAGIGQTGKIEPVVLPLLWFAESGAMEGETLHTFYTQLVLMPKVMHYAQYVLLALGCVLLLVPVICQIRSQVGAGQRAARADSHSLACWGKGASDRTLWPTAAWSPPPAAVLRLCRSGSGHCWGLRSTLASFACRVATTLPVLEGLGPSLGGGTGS
UniProt P02769, residues 25-607: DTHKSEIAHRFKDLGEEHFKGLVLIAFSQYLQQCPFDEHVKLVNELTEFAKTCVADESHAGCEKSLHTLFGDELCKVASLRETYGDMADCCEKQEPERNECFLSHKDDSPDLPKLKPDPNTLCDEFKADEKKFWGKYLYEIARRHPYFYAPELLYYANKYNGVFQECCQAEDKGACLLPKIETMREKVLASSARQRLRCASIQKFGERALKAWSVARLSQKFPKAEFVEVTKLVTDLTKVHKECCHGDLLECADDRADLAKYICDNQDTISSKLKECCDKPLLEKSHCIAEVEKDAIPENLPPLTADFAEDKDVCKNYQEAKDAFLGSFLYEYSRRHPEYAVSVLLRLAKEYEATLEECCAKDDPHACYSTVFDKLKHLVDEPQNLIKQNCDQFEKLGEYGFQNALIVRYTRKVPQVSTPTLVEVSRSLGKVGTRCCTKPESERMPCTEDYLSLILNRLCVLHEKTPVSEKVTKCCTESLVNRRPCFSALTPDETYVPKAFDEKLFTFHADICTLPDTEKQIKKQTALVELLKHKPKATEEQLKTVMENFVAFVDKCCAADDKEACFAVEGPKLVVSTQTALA

No constants are given. Whether binding was seen depends on the method and setting.

This test has as its target Recombinant human SR-B1 (human) (UniProt Q8WTV0). The test can be described thus: atomic force microscopy imaging; receptor (100 μl CD36 or SR-B1 at 0.1 μg/ml) immobilised as a monolayer on glutaraldehyde-APTES mica, blocked with L-glycine, incubated with 100 μl lipoproteins at 0.1 μg/ml (or BSA), washed with PBS; tapping mode in PBS, 1 μm × 1 μm scans; bound particles counted; both purified.

As to “Bovine serum albumin (from UniProt P02769 25-607)”, the binding result is reported as “no binding”.
